Results published in patent US20210130473A1, “TGFßR1 INHIBITOR-ASGR ANTIBODY CONJUGATES AND USES THEREOF” (Silverback Therapeutics, Inc., priority 2019, published 2021).
Substitutions are numbered along the chain they refer to. Names may count otherwise. No constants are given. Whether binding was seen depends on the method and setting. Some binding calls cover weakened binding; strength is not graded here. For some assays here: Where a sequence is shown, tags or fusion partners need not be part of it.

Legend:
[1] = biological target: human ASGR1 (asialoglycoprotein receptor 1) on cells (human) (UniProt P07306); test: flow cytometry on HepG2 cells, anti-human IgG PE secondary, MFI (Geo Mean)
[2] = biological target: human ASGR1 (asialoglycoprotein receptor 1) on cells (human) (UniProt P07306); test: flow cytometry on HepG2 cells
[3] = biological target: human ASGR1 (asialoglycoprotein receptor 1) on cells (human) (UniProt P07306); test: Guava flow cytometry screen on HepG2 cells
[4] = biological target: T1, His-tagged human ASGR1 extracellular domain (human) (UniProt P07306); test: Octet, His-tagged ASGR1 ECD on Penta-His sensors; saturation binding with Ca2+, signal kept on dissociation with or without Ca2+
T1 sequence (looked up): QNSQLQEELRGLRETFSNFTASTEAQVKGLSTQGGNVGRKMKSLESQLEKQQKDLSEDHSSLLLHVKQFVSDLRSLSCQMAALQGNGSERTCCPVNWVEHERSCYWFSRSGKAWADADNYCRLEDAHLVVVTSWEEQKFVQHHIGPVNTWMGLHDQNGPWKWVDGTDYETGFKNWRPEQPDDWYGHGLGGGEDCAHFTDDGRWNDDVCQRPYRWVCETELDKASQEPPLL

B1: hzH8K-1 (antibody, IgG1, V domains shown)
VH: QVQLQESGPGLVKPSQTLSLTCTVSGGSISSDYAWNWIRQHPGKGLEWIGYRSYRGSTSYNPSLKSRVTISVDTSKNQFSLKLSSVTAADTAVYYCARRGYYGSSSHWYFDVWGQGTTVTVSS
VL: DIQMTQSPSSLSASVGDRVTITCRASENIYSYLAWYQQKPGKAPKLLIYNAKTLAEGVPSRFSGSGSGTDFTLTISSLQPEDFATYYCQHHYGTPLTFGGGTKVEIK
In the case of B1, the binding [1] is reported as “binds” and the binding [2] is reported as “binds”.

B2: hzH8K-10 (antibody, IgG1, V domains shown)
VH: B1 VH with S71T, V72R
VL: B1 VL
B2 was tested, and the binding [1] was “binds” and the binding [2] was “binds”.

B3: hzL4L-7 (antibody, IgG1, V domains shown)
VH: QVQLQESGPGLVKPSQTLSLTCTVSGYSISSDYAWNWIRQHPGKGLEWIGYISYSGSTRYNPSLKSRVTITRDTSKNQFSLKLSSVTAADTAVYYCARRYRYDEGYGMDYWGQGTTVTVSS
VL: DIQMTQSPSSLSASVGDRVTITCRASENIYSNLAWYQQKPGKAPKLLIYAATNLADGVPSRFSGSGSGTDFTLTISSLQPEDFATYYCQHFWGTPPWTFGGGTKVEIK
With B3 the binding [1] was “binds”, the binding [3] was “binds” and the binding [2] was “binds”.

B4: hzL4L-14 (antibody, IgG1, V domains shown)
VH: B3 VH
VL: B3 VL with D56E
B4 was tested, and the binding [1] was “binds” and the binding [2] was “binds”.

B5: chH8K (antibody, human IgG1, kappa, V domains shown)
VH: DVQLQESGPGLVKPSQSLSLTCTVTGFSITSDYAWNWIRQFPGNQLEWMGYRSYRGSTSYNPSLKSRISITRDTSKNQFFLQLNSVTTEDTATYYCARRGYYGSSSHWYFDVWGAGTTVTVSS
VL: DIQMTQSPASLSASVGETVTITCRASENIYSYLAWYQQKQGKSPQLLVYNAKTLAEGVPSRFSGSGSGTQFSLKINSLQPEDFGSYYCQHHYGTPLTFGSGTKLELKR
With B5 the binding [4] was “binds”.

B6: L4L (parental chimeric antibody of Table 7) (antibody, IgG1, V domains shown)
VH: DVQLQESGPGLVKPSQSLSLTCTVTGYSITSDYAWNWIRQFPGNKLEWMGYISYSGSTRYNPSLKSRISITRDTSKNQFFLQLNSVTTEDTATYYCARRYRYDEGYGMDYWGQGTSVTVSS
VL: DIQMTQSPASLSVFVGEIVTITCRASENIYSNLAWYQQKQGKSPQLLVYAATNLADGVPSRFTGSGSGTQFSLKINSLQSEDFGNYYCQHFWGTPPWTFGGGTKLEIK
With B6 the binding [3] was “binds”.

B7: hzL4L-3 (antibody, IgG1, V domains shown)
VH: B3 VH with S30T, V68I, T69S
VL: B3 VL
For B7, the binding [3] was “binds”.

B8: hzL4L-4 (antibody, IgG1, V domains shown)
VH: B3 VH with S30T, T71S, R72V
VL: B3 VL
With B8 the binding [3] was “binds”.

B9: hzL4L-11 (antibody, IgG1, V domains shown)
VH: B3 VH with S30T, V68I, T69S
VL: B3 VL with D56E
For B9, the binding [3] was “binds”.
